# Laboratory results as given in publication doi:10.1101/2022.09.13.507836.
# These are yes or no findings as the source states them, for the method shown. For part of these data: Binding can be weak; no strength is given. For part of these data: Where a sequence is shown, tags or fusion partners need not be part of it. For part of these data: In cells and extracts the contact can be indirect.
# Assays:
# [1] = molecular target: T1, SE C-terminal region (469-720 aa) (Arabidopsis) (UniProt Q9ZVD0); assay: two-hybrid
# T1 sequence: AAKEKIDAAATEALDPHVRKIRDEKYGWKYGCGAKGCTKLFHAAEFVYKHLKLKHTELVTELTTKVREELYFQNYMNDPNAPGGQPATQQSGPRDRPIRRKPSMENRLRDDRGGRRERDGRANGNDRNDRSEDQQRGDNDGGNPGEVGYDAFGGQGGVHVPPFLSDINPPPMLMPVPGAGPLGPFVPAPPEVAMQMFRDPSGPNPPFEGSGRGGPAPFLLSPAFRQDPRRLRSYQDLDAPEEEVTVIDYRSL
# [2] = molecular target: T2, BD-SE (SERRATE, full length) (Arabidopsis) (UniProt Q9ZVD0); assay: two-hybrid
# T2 sequence: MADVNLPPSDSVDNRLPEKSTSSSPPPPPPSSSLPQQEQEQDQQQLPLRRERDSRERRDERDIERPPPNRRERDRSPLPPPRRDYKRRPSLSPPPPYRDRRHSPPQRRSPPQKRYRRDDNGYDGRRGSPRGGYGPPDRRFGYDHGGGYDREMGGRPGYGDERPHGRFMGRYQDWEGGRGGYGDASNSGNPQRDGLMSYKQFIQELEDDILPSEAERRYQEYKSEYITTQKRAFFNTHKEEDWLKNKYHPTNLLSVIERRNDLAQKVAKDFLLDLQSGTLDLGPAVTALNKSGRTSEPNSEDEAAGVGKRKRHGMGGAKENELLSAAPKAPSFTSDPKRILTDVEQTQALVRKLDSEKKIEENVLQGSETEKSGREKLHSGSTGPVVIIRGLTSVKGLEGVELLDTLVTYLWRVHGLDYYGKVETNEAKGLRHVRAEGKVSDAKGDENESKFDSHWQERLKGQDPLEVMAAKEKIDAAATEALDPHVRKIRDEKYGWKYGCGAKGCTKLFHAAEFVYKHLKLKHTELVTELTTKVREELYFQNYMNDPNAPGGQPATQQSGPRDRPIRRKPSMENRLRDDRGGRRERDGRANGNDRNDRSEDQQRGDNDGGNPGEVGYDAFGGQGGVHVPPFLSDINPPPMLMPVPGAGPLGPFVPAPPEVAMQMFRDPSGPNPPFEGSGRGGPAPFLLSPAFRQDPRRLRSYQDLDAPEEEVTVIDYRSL
# [3] = molecular target: T3, 20S Proteasome Alpha Subunit G1 (PAG1) (Arabidopsis) (UniProt O23715); assay: two-hybrid
# T3 sequence: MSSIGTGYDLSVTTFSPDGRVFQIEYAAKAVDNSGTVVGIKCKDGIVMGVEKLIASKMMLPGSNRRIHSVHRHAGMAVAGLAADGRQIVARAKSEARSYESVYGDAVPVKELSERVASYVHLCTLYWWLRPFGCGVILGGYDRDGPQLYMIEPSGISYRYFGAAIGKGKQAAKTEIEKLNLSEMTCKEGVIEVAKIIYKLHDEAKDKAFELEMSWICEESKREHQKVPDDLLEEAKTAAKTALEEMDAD
# cYFP-SE (Arabidopsis) = molecular target: T4, cYFP-SE (Arabidopsis) (UniProt Q9ZVD0); assay: split reporter
# T4 sequence: T2 sequence
binding [1],binding [2],binding [3],binding (cYFP-SE (Arabidopsis)),Substance
–,binds,–,–,SAID1 middle part (377-580aa) (Arabidopsis) (domain or fragment)
–,–,–,binds,nYFP-SAID1 (Arabidopsis)
–,binds,–,–,pre-mRNA processing 4 kinase A (PRP4KA) (Arabidopsis) (enzyme)

# The next lines start with the substance.
Substance,binding [1],binding [2],binding [3],binding (cYFP-SE (Arabidopsis))
AD-SAID1 (full length) (Arabidopsis),binds,binds,no binding,–
nYFP-SAID2 (Arabidopsis),–,–,–,binds
AD-SAID2 (Arabidopsis),–,binds,no binding,–
